In the supplement of paper PMC12889115:
The list shows a part of the results. These are raw signals, not scaled to a control.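 Primary screen: polymyxin B was added at a level permeabilizing Salmonella outer membranes while sparing inner membranes. DMSO wells, both with and without polymyxin B, established maximum growth. Plate-to-plate variation meant each plate was ranked on its own, and the lowest-OD600 compounds were selected as hits.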

Tested on: Salmonella enterica serovar Typhimurium SL1344
Assay: bacterial growth OD600 after 18 h with compound and polymyxin B; higher = more bacterial growth (less inhibition)
Settings: 50 µM, Mueller-Hinton broth

Structure (SMILES)	bacterial growth OD600 (polymyxin B 0.75 µg/mL)	bacterial growth OD600 (polymyxin B 1 µg/mL)
CSCCCN1CCC(Oc2cc(Cl)ccc2C(=O)N2CCCCC2)CC1	0.793	–
COc1ccc(-c2nn(-c3ccccc3C)cc2CN2CCC[C@H]2CO)cc1F	0.705	–
COCc1ccc(C(=O)N2CCCCC2C(=O)Nc2cccc(-c3nnc(C)s3)c2)o1 (stereo unspecified)	0.84	–
COc1ccccc1CCN1CCCC(CN(C)Cc2ccc(C)o2)C1 (stereo unspecified)	0.797	–
Cc1cc(OCc2cc(C(=O)N[C@H]3CCCCNC3=O)no2)cc(C)c1Cl	0.629	–
Cc1ccc(CN(C)C(=O)CC(c2ccccc2)c2ccc3c(c2)OCO3)o1 (stereo unspecified)	–	0.012
Cc1ccccc1N1CCN(C2CCCN(C(=O)CCn3cnc4ccccc43)C2)CC1 (stereo unspecified)	–	0.806
CC(C)(C)CC(=O)N1CCC2(CCCN(Cc3cccc(F)c3F)C2=O)C1 (stereo unspecified)	–	0.884
O=C(c1cn(C/C=C/c2ccccc2)nn1)N1CCCN(C2CCCCC2)CC1	–	1.26
CCOC(=O)N1CCN(Cc2ccc3c(c2)CN(C(=O)c2cccs2)CCO3)CC1	0.84	–
CC(=O)NC1CCCc2nc(N3CCC(CO)CC3)ncc21 (stereo unspecified)	0.829	–
O=C(Nc1ccc(Oc2cccnc2)cc1)C1CCN(Cc2cccc(O)c2)CC1	–	1.06
COc1ccc(CCC2CCCN(C(=O)CSC)C2)cc1 (stereo unspecified)	0.368	–
CCOC(=O)N1CCN(C(=O)c2cn(C3CCCCCC3)nn2)CC1	–	0.969
COc1ccc(CNC(=O)C2CCC(=O)N(C3CCCCCC3)C2)c(OC)c1 (stereo unspecified)	–	0.84
Cc1nc2cc(OCc3nc(C(=O)NCc4ccccn4)co3)ccc2s1	–	0.84

2 compounds picked at random from those above, as already listed:
Structure (SMILES)	bacterial growth OD600 (polymyxin B 0.75 µg/mL)	bacterial growth OD600 (polymyxin B 1 µg/mL)
CC(C)(C)CC(=O)N1CCC2(CCCN(Cc3cccc(F)c3F)C2=O)C1 (stereo unspecified)	–	0.884
Cc1ccccc1N1CCN(C2CCCN(C(=O)CCn3cnc4ccccc43)C2)CC1 (stereo unspecified)	–	0.806

(listing goes on)

Structure (SMILES)	bacterial growth OD600 (polymyxin B 0.75 µg/mL)	bacterial growth OD600 (polymyxin B 1 µg/mL)
COc1ccc(C(=O)Nc2ccnn2C2CCN(C(=O)c3cccs3)CC2)cc1	–	0.851
O=C(CC(c1cccc(O)c1)c1ccccc1Cl)NC1CC1 (stereo unspecified)	–	0.78
CCOC(=O)C1(Cc2ccc(Cl)cc2)CCN(Cc2cccc3nonc23)CC1	–	0.714
COCC(=O)Nc1cc(C(=O)N(C)Cc2nc3ccc(F)cc3[nH]2)c2c(c1)nc(C1CCC1)n2C	0.802	–
COCC(=O)N1CCC(Oc2ccccc2C(=O)N(C)Cc2nc(C)c[nH]2)CC1	–	1.02
Cc1nc(N2CCC(C(=O)NC3C4CC5CC(C4)CC3C5)CC2)nc2cc(S(C)(=O)=O)ccc12 (stereo unspecified)	0.547	–
O=C(c1cn(C2CCCCC2)nn1)N1CCCCC1c1cccnc1 (stereo unspecified)	–	0.835
CN(C(=O)c1ccccn1)C(Cc1ccccc1)C1CCN(C(=O)/C(F)=C/c2ccccc2)CC1 (stereo unspecified)	0.002	–
C=Cc1ccc(C(=O)N2CCOc3ccc(C(O)CCc4ccccc4)cc3C2)cc1 (stereo unspecified)	0.507	–
CN(Cc1ccccc1)C(=O)c1coc(COc2ccc3c(c2)OCO3)n1	–	0.699
CN(C)C(=O)C1CCCN(C2CCN(c3nc4ccccc4o3)CC2)C1 (stereo unspecified)	0.798	–
COCC1CCCN(Cc2ccc3c(c2)CN(C(=O)CCn2cnc4ccccc4c2=O)CCO3)C1 (stereo unspecified)	0.926	–
CCN1CCN(C2(C(=O)N3CCC(OC)CC3)Cc3ccccc3C2)CC1	0.828	–
CC(=O)NCCC(=O)N(C)CC1CCN(CCc2ccccc2F)CC1	–	1.19
Cc1ncsc1CCC(=O)NCc1nc(-c2cccc(NC(=O)C3CCCN(C)C3)c2)oc1C (stereo unspecified)	0.856	–
